From patent US20100016331A1, “NOVEL COMPOUNDS” (priority 2006, published 2010)
Some entries share one result that the patent states for a list of compounds. Blank lines part the entries; values can stand above or below the molecule they belong to.

Target: T1, Progesterone Receptor (Homo sapiens, UniProt P06401)
T1 construct: expressed in transfected cells; host or cells: CV-1 cells transduced with PRb-BacMam and MMTV-BacMam reporter
T1 sequence (P06401 1-933): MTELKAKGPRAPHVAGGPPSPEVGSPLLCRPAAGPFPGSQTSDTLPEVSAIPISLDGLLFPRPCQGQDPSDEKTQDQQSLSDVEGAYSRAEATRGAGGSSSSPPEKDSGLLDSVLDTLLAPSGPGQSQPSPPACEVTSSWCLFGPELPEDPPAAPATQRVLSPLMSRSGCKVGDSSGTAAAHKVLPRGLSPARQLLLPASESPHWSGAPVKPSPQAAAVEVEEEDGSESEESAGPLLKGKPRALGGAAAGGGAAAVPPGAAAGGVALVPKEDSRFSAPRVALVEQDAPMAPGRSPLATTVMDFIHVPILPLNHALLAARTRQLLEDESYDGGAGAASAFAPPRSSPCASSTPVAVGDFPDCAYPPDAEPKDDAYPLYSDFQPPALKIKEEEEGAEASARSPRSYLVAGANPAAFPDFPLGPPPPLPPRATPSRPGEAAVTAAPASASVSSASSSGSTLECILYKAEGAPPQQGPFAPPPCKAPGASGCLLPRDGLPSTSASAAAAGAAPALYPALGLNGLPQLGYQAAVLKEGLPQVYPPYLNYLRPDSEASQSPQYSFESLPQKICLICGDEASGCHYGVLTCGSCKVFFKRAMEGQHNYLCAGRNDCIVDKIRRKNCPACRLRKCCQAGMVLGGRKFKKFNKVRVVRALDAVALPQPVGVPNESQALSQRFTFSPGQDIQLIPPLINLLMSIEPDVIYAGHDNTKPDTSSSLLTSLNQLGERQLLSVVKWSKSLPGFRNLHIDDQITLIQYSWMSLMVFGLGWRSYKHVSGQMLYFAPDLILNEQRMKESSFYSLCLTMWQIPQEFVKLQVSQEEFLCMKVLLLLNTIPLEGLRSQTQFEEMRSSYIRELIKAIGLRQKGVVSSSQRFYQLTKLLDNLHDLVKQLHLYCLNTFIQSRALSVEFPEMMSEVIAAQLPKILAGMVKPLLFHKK
Test: Assay for Progesterone Receptor Activity (CV-1 cells transduced with PRb-BacMam and MMTV-BacMam, Steadylite readout)
Assay type: cell-based
Settings: 24 h

Structure (SMILES): COC[C@@H]1CCCN1C(=O)c1cccc(-n2ncc3c(NCC(O)(CC(C)(C)c4cc(F)ccc4OC)C(F)(F)F)cc(C)cc32)c1 (stereo partly drawn) [Example 22, 1,1,1-Trifluoro-4-[5-fluoro-2-(methyloxy)phenyl]-4-methyl-2-[({6-methyl-1-[3-({(2S)-2-[(methyloxy)methyl]-1-pyrrolidinyl]carbonyl)phenyl]-1H-indazol-4-yl}amino)methyl]-2-pentanol]
- pEC50, progesterone receptor activity: < 8

Structure (SMILES): CC[C@H](NC(=O)c1cccc(-n2ncc3c(NCC(O)(CC(C)(C)c4cc(F)ccc4OC)C(F)(F)F)cc(C)cc32)c1)C(N)=O (stereo partly drawn) [Example 11, N-[(1S)-1-(Aminocarbonyl)propyl]-3-(4-{[4-[5-fluoro-2-(methyloxy)phenyl]-2-hydroxy-4-methyl-2-(trifluoromethyl)pentyl]amino}-6-methyl-1H-indazol-1-yl)benzamide]
- pEC50, progesterone receptor activity: < 8

Structure (SMILES): COc1ccc(F)cc1C(C)(C)CC(O)(CNc1cc(C)cc2c1cnn2-c1cccc(C(=O)NC[C@@H](O)CO)c1)C(F)(F)F (stereo partly drawn) [Example 10, N-[(2R)-2,3-dihydroxypropyl]-3-(4-{[4-[5-fluoro-2-(methyloxy)phenyl]-2-hydroxy-4-methyl-2-(trifluoromethyl)pentyl]amino}-6-methyl-1H-indazol-1-yl)benzamide]
- pEC50, progesterone receptor activity: < 8

Structure (SMILES): COc1ccc(F)cc1C(C)(C)CC(O)(CNc1cc(C)cc2c1cnn2-c1cccc(C(=O)N[C@H]2CCOC2=O)c1)C(F)(F)F (mixture of isomers) [Example 21, 3-(4-{[4-[5-Fluoro-2-(methyloxy)phenyl]-2-hydroxy-4-methyl-2-(trifluoromethyl)pentyl]amino}-6-methyl-1H-indazol-1-yl)-N-[(3S)-2-oxotetrahydro-3-furanyl]benzamide]
- pEC50, progesterone receptor activity: < 8

Structure (SMILES): COc1ccc(F)cc1C(C)(C)CC(O)(CNc1cc(C)cc2c1cnn2-c1cccc(C(=O)N[C@H](CCC(N)=O)C(N)=O)c1)C(F)(F)F (stereo partly drawn) [Example 13, N^2-{[3-(4-{[4-[5-Fluoro-2-(methyloxy)phenyl]-2-hydroxy-4-methyl-2-(trifluoromethyl)pentyl]amino}-6-methyl-1H-indazol-1-yl)phenyl]carbonyl}-D-glutamamide]
- pEC50, progesterone receptor activity: < 8

Structure (SMILES): COc1ccc(F)cc1C(C)(C)CC(O)(CNc1cc(C)cc2c1cnn2-c1cccc(C(=O)N[C@@H](CC(N)=O)C(N)=O)c1)C(F)(F)F (stereo partly drawn) [Example 15, N^2-{[3-(4-{[4-[5-Fluoro-2-(methyloxy)phenyl]-2-hydroxy-4-methyl-2-(trifluoromethyl)pentyl]amino}-6-methyl-1H-indazol-1-yl)phenyl]carbonyl}-L-aspartamide]
- pEC50, progesterone receptor activity: < 8

Structure (SMILES): COc1ccc(F)cc1C(C)(C)CC(O)(CNc1cc(C)cc2c1cnn2-c1cccc(C(=O)NC[C@@H](C)O)c1)C(F)(F)F (stereo partly drawn) [Example 7, 3-(4-{[4-[5-Fluoro-2-(methyloxy)phenyl]-2-hydroxy-4-methyl-2-(trifluoromethyl)pentyl]amino}-6-methyl-1H-indazol-1-yl)-N-[(2R)-2-hydroxypropyl]benzamide]
- pEC50, progesterone receptor activity: < 8

Structure (SMILES): COc1ccc(F)cc1C(C)(C)CC(O)(CNc1cc(C)cc2c1cnn2-c1cccc(C(=O)N[C@@H](CCSC)C(N)=O)c1)C(F)(F)F (stereo partly drawn) [Example 16, N-[(1S)-1-(Aminocarbonyl)-3-(methylthio)propyl]-3-(4-{[4-[5-fluoro-2-(methyloxy)phenyl]-2-hydroxy-4-methyl-2-(trifluoromethyl)pentyl]amino}-6-methyl-1H-indazol-1-yl)benzamide]
- pEC50, progesterone receptor activity: < 8

Structure (SMILES): COc1ccc(F)cc1C(C)(C)CC(O)(CNc1cc(C)cc2c1cnn2-c1cccc(C(=O)NC2CC2)c1)C(F)(F)F (centres unmarked) [Example 3, N-Cyclopropyl-3-(4-{[4-[5-fluoro-2-(methyloxy)phenyl]-2-hydroxy-4-methyl-2-(trifluoromethyl)pentyl]amino}-6-methyl-1H-indazol-1-yl)benzamide]
- pEC50, progesterone receptor activity: < 8

Structure (SMILES): COc1ccc(F)cc1C(C)(C)CC(O)(CNc1cc(C)cc2c1cnn2-c1cccc(C(=O)NC[C@H](O)CO)c1)C(F)(F)F (stereo partly drawn) [Example 9, N-[(2S)-2,3-dihydroxypropyl]-3-(4-{[4-[5-fluoro-2-(methyloxy)phenyl]-2-hydroxy-4-methyl-2-(trifluoromethyl)pentyl]amino}-6-methyl-1H-indazol-1-yl)benzamide]
- pEC50, progesterone receptor activity: < 8

Structure (SMILES): COc1ccc(F)cc1C(C)(C)CC(O)(CNc1cc(C)cc2c1cnn2-c1cccc(C(=O)N[C@H](C(N)=O)C(C)C)c1)C(F)(F)F (stereo partly drawn) [Example 17, N-[(1S)-1-(Aminocarbonyl)-2-methylpropyl]-3-(4-{[4-[5-fluoro-2-(methyloxy)phenyl]-2-hydroxy-4-methyl-2-(trifluoromethyl)pentyl]amino}-6-methyl-1H-indazol-1-yl)benzamide]
- pEC50, progesterone receptor activity: < 8

Structure (SMILES): COc1ccc(F)cc1C(C)(C)CC(O)(CNc1cc(C)cc2c1cnn2-c1cccc(C(=O)N[C@@H](C(N)=O)C(C)C)c1)C(F)(F)F (stereo partly drawn) [Example 18, N-[(1R)-1-(Aminocarbonyl)-2-methylpropyl]-3-(4-{[4-[5-fluoro-2-(methyloxy)phenyl]-2-hydroxy-4-methyl-2-(trifluoromethyl)pentyl]amino}-6-methyl-1H-indazol-1-yl)benzamide]
- pEC50, progesterone receptor activity: < 8

Structure (SMILES): COc1ccc(F)cc1C(C)(C)CC(O)(CNc1cc(C)cc2c1cnn2-c1cccc(C(=O)N2CCCCC2C(N)=O)c1)C(F)(F)F (centres unmarked) [Example 19, 1-{[3-(4-{[4-[5-Fluoro-2-(methyloxy)phenyl]-2-hydroxy-4-methyl-2-(trifluoromethyl)pentyl]amino}-6-methyl-1H-indazol-1-yl)phenyl]carbonyl}-2-piperidinecarboxamide]
- pEC50, progesterone receptor activity: < 8

Now from value to molecule:

- pEC50, progesterone receptor activity: < 8
Structure (SMILES): COc1ccc(F)cc1C(C)(C)CC(O)(CNc1cc(C)cc2c1cnn2-c1cccc(C(=O)N[C@@H](C(N)=O)c2ccccc2)c1)C(F)(F)F (stereo partly drawn) [Example 34, N-[(1R)-2-Amino-2-oxo-1-phenylethyl]-3-(4-{[4-[5-fluoro-2-(methyloxy)phenyl]-2-hydroxy-4-methyl-2-(trifluoromethyl)pentyl]amino}-6-methyl-1H-indazol-1-yl)benzamide]

- pEC50, progesterone receptor activity: < 8
Structure (SMILES): COc1ccc(F)cc1C(C)(C)CC(O)(CNc1cc(C)cc2c1cnn2-c1cccc(C(=O)N2CCNC(=O)C2)c1)C(F)(F)F (centres unmarked) [Example 33, 4-{[3-(4-{[4-[5-Fluoro-2-(methyloxy)phenyl]-2-hydroxy-4-methyl-2-(trifluoromethyl)pentyl]amino}-6-methyl-1H-indazol-1-yl)phenyl]carbonvl}-2-piperazinone]

- pEC50, progesterone receptor activity: < 8
Structure (SMILES): COc1ccc(F)cc1C(C)(C)CC(O)(CNc1cc(C)cc2c1cnn2-c1cccc(C(=O)NCc2ncon2)c1)C(F)(F)F (centres unmarked) [Example 26, 3-(4-{[4-[5-Fluoro-2-(methyloxy)phenyl]-2-hydroxy-4-methyl-2-(trifluoromethyl)pentyl]amino}-6-methyl-1H-indazol-1-yl)-N-(1,2,4-oxadiazol-3-ylmethyl)benzamide]

- pEC50, progesterone receptor activity: < 8
Structure (SMILES): COc1ccc(F)cc1C(C)(C)CC(O)(CNc1cc(C)cc2c1cnn2-c1cccc(C(=O)NCc2nnc(C)[nH]2)c1)C(F)(F)F (centres unmarked) [Example 27, 3-(4-{[4-[5-Fluoro-2-(methyloxy)phenyl]-2-hydroxy-4-methyl-2-(trifluoromethyl)pentyl]amino}-6-methyl-1H-indazol-1-yl)-N-[(3-methyl-1H-1,2,4-triazol-5-yl)methyl]benzamide]

- pEC50, progesterone receptor activity: < 8
Structure (SMILES): COc1ccc(F)cc1C(C)(C)CC(O)(CNc1cc(C)cc2c1cnn2-c1cccc(C(=O)N[C@@H]2CCN(C)C2=O)c1)C(F)(F)F (stereo partly drawn) [Example 31, 3-(4-{[4-[5-Fluoro-2-(methyloxy)phenyl]-2-hydroxy-4-methyl-2-(trifluoromethyl)pentyl]amino]-6-methyl-1H-indazol-1-yl)-N-[(3R)-1-methyl-2-oxo-3-pyrrolidinyl]benzamide]

- pEC50, progesterone receptor activity: < 8
Structure (SMILES): COc1ccc(F)cc1C(C)(C)CC(O)(CNc1cc(C)cc2c1cnn2-c1cccc(C(=O)NC2CCS(=O)(=O)C2)c1)C(F)(F)F (centres unmarked) [Example 24, N-(1,1-Dioxidotetrahydro-3-thienyl)-3-(4-{[4-[5-fluoro-2-(methyloxy)phenyl]-2-hydroxy-4-methyl-2-(trifluoromethyl)pentyl]amino}-6-methyl-1H-indazol-1-yl)benzamide]

- pEC50, progesterone receptor activity: < 8
Structure (SMILES): COc1ccc(F)cc1C(C)(C)CC(O)(CNc1cc(C)cc2c1cnn2-c1cccc(C(=O)N2CC[C@@H](O)C2)c1)C(F)(F)F (stereo partly drawn) [Example 25, (3R)-1-{[3-(4-{[4-[5-Fluoro-2-(methyloxy)phenyl]-2-hydroxy-4-methyl-2-(trifluoromethyl)pentyl]amino}-6-methyl-1H-indazol-1-yl)phenyl]carbonyl}-3-pyrrolidinol]
